These are yes or no findings as the source states them, for the method shown. In cells and extracts the contact can be indirect. These calls come from enrichment with a bait or labelling near it, and not all partners need be listed. For part of these data: No binding means not detected with the bait.
Columns and labels:
Test in all cases: proximity labelling; eleven TurboID fusion strains (ndt80, homozygous) and a no-TurboID control, ~24 h sporulation, two replicates; TCA extract, streptavidin-sepharose pull-down, trypsin, UPLC-MS/MS; targets = in both replicates and in neither control
[1] = molecular target: Mer3-TurboID (S. cerevisiae) (UniProt P51979)
[2] = molecular target: T1, Mlh3-TurboID (S. cerevisiae) (UniProt Q12083)
T1 sequence: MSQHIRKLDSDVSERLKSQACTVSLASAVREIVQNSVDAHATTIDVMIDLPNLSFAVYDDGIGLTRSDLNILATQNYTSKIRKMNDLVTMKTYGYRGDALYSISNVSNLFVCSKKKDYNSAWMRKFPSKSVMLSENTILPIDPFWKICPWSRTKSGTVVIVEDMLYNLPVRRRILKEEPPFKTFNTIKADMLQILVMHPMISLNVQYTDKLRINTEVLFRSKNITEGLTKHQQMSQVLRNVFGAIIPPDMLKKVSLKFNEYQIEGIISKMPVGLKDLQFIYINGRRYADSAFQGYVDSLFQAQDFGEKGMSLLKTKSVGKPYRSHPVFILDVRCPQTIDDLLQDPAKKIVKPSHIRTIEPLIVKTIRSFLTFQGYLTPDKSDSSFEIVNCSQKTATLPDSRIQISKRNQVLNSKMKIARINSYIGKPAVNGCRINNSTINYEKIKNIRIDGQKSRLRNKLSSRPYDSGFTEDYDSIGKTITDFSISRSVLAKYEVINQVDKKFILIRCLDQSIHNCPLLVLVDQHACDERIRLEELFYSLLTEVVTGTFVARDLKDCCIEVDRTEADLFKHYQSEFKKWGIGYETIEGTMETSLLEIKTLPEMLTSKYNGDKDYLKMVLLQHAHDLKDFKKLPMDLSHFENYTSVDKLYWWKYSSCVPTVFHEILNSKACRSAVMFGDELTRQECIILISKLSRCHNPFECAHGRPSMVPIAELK

Chains of the proteins cited; added tags and fusions are not shown.
UniProt P51979: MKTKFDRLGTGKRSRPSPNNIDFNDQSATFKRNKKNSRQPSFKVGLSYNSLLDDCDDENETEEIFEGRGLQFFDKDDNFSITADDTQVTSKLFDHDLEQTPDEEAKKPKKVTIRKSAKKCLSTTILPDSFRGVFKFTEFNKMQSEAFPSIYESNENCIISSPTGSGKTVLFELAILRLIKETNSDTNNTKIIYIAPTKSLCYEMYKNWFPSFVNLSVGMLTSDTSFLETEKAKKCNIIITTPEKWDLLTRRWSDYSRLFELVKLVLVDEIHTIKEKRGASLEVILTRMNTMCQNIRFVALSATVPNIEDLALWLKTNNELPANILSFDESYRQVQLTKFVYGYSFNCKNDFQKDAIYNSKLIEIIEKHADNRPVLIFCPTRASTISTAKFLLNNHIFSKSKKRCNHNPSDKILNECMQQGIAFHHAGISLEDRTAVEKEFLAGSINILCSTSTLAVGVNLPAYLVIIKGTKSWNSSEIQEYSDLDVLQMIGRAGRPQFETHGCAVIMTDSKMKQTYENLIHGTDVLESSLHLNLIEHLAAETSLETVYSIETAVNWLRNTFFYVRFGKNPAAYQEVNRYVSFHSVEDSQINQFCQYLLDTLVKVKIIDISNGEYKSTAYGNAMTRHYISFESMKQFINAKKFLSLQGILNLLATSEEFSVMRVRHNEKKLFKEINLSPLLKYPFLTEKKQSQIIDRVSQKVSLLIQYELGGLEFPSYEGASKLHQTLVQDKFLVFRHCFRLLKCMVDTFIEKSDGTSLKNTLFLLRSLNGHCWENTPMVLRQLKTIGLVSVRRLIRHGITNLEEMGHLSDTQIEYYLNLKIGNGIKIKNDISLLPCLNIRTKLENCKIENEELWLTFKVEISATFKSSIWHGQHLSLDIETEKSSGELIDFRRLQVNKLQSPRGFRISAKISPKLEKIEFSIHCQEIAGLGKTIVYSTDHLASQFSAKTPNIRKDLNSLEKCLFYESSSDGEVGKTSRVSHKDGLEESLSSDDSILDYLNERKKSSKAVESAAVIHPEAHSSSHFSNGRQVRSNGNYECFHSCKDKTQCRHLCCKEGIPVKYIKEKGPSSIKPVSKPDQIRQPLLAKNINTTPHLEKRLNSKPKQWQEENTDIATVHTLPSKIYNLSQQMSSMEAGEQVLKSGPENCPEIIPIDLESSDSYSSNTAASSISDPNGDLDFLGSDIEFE

[3] = molecular target: T2, Msh5-TurboID (S. cerevisiae) (UniProt Q12175)
T2 sequence: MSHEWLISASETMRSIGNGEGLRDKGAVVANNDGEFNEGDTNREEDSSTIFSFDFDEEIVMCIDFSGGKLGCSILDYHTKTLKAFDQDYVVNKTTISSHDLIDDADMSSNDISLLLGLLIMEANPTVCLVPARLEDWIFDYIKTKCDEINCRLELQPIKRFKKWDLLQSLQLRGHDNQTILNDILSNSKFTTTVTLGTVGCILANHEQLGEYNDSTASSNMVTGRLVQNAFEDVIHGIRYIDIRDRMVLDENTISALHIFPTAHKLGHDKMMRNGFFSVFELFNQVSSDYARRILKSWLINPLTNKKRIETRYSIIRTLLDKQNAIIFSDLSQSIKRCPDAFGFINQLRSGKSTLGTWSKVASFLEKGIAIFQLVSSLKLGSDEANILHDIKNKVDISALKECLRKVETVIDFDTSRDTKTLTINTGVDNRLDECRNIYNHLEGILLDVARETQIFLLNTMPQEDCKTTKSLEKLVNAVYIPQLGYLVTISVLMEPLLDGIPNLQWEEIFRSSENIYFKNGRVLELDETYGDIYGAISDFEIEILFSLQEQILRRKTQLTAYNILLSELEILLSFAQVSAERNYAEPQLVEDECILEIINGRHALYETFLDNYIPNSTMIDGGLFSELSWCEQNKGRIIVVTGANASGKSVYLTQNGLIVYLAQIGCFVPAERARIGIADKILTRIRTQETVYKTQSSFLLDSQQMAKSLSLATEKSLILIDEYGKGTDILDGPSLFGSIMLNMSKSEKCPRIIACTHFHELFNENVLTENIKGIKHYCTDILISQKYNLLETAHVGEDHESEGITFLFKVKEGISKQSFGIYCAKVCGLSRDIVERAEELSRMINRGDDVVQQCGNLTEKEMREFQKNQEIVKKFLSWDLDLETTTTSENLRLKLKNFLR

[4] = molecular target: T3, TurboID-Gmc2 (S. cerevisiae) (UniProt Q06201)
T3 sequence: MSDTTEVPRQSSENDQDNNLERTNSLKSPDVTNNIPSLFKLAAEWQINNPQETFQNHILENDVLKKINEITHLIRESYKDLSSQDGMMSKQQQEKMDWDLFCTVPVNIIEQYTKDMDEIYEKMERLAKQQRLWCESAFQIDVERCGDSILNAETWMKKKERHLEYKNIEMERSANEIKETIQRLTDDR

[5] = molecular target: Zip4-TurboID (S. cerevisiae)
[6] = molecular target: Zip4iTurboID (S. cerevisiae)

Measured: binding

B1: Ecm11 (protein, UniProt Q04110 1-302)
chain: MTVIKTEPTTEVTLYSPPSKESLSKDDAHRKKQNNKPPSSINSRSGPNKHKLAAKAPEKKINNTDKQDLSAFLLNPSLIVKPSESKKKENIVAYNDTPGIKTEHTAFQPLTPISKKRALKEKAASEKCDSFDLSRDEKPYIQKKSKTLSSVTEINSSEYKLSLNGENTSSPAKEKSQEPIENPGSYQKTRNYLFEKPDPLDTCLQDYSSMLPSNVAEEDQEYFISVADSTLEEWTNKGQEIIDQQFQLYQEIIKKRIELSYKFKGIISVINDRADALEEQGQQLEGKIKKVKTLANEILNII
no binding: [2]
binds: [1] | [3] | [4] | [5] | [6]

B2: Zip1 (protein, UniProt P31111 1-875)
chain: MSNFFRDSSMGFKPRPNIFAKLRVRDVDSDSSANTVVENSSNCLDVGSSIEGDDTFKKPHKTSTEQELITSMSLSQRNHGYSDDMEIGSPKKTTSTDQYNRILKNDVAAIENDTDEDFEITEVREVSEGVAKETKESHGDPNDSETTLKDSKMHEYTMTNGKAPLHTSINNSSTSSNDVLLEAFTNTQRICSNLKQELQKQQQDNAKLKVRLQSYASNSDKINEKVGKYKSCLETLQERIATLTSHKNNQETKLKDLRQNHQLYQRRISGFKTSIENLNKTINDLGKNKKEADAELMKKGKEIEYLKRELDDCSGQLSEEKIKNSSLIQEMGKNREEMIKSIENFFSEDKAHHLLQFNKFEERVHDLFEKKLQKHFDVAKDTLNVGLRNTTVELSSNTETMLKQQYEDIKENLEQKMSSSKDEMAKTINELSVTQKGLIMGVQEELLTSSGNIQTALVSEMNNTRQELLDDASQTAKNYASLENLVKAYKAEIVQSNEYEERIKHLESERSTLSSQKNQIISSLGTKEAQYEDLVKKLEAKNIEISQISGKEQSLTEKNENLSNELKKVQDQLEKLNNLNITTKSNYENKISSQNEIVKALVSENDTLKQRIQQLVEIKENEQKDHTTKLEAFQKNNEQLQKLNVEVVQLKAHELELEEQNRHLKNCLEKKETGVEESLSDVKTLKQQVIVLKSEKQDITAEKLELQDNLESLEEVTKNLQQKVQSQKRELEQKIKELEEIKNHKRNEPSKKGTQNFTKPSDSPKKNATTSNLFPNNSAAIHSPMKKCPKVDHISKSRINSSKETSKFNDEFDLSSSSNDDLELTNPSPIQIKPVRGKIKKGSNCMKPPISSRKKLLLVEDEDQSLKISKKRRRK
no binding: [2] | [4]
binds: [1] | [3] | [5] | [6]
